This test addresses BatR-3xFlag (P. aeruginosa PAO1) (UniProt Q9HZF9). In words: affinity purification with mass spectrometry; co-immunoprecipitation of BatR-3xFlag (bait) with PAO1 proteins, mass spectrometry of the precipitate; protocol in S5 Data.

Amino acid sequences for entries named in this document (tags omitted). A change or cut given only in a name is not applied to a line headed by its entry.
UniProt Q9HZF9: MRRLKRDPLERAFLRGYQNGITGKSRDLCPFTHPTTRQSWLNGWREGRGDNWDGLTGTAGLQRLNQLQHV
UniProt O54439: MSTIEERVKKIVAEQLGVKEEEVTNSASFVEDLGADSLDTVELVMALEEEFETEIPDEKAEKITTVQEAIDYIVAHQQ
UniProt Q9HXI8: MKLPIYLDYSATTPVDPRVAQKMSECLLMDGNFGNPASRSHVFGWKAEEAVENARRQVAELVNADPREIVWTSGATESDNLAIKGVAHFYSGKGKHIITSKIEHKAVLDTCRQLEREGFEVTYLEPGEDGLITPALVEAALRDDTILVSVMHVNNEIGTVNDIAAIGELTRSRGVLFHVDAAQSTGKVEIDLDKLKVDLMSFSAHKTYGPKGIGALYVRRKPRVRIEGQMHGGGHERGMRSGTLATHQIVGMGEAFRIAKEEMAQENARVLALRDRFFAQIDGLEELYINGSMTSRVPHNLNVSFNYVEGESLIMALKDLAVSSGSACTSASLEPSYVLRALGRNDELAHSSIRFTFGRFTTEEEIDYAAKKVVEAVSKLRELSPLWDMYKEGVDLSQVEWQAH

The source of these data is PMC13411936.

No constants are given. Whether binding was seen depends on the method and setting. Binding seen in cells or lysates may run through a third protein. These calls come from enrichment with a bait or labelling near it, and not all partners need be listed.

In the case of “Acyl carrier protein 1 (from UniProt O54439 1-78)”, the binding result is listed as “binds”.
As for “Cysteine desulfurase IscS (from UniProt Q9HXI8 1-404)”, the entry is “binds”.

B1: Bifunctional protein HldE (protein, UniProt Q9HUG9 1-474)
chain: MKLSMPRFDQAPVLVVGDVMLDRYWHGATSRISPEAPVPVVRVEQHEDRPGGAANVALNIAALGAQALLVGVTGRDEAADSLANSLKAAGVDARFQRIDSQPTIVKLRVMSRHQQLLRVDFEEPFRTDAAALAVDVESLLAKVKVLVLSDYGKGALQNHQVLIQAARARNIPVLADPKGKDFAIYRGASLITPNLSEFETIVGRCADEAELVAKGQALMSELDLGALLVTRGEHGMTLLRHGQPALHLPARAREVFDVTGAGDTVISTLAAALAAGEELPSAVGLANLAAGIVVGKLGTAAISAPELRRAVQREQGSERGVLGLEQLLLAIEDARAHGEKIVFTNGCFDILHAGHVTYLEQARAQGDRLIVGVNDDASVTRLKGVGRPINSVDRRMAVLAGLGAVDWVVSFAEDTPERLLEQVRPDVLVKGGDYGVEQVVGAQIVKAYGGEVRVLGLVENSSTTAIVEKIRQKG
Turning to B1, the binding result is reported as “binds”.

B2: Stress response kinase A (protein, UniProt Q9I632 1-324)
chain: MSHPFDQLTPDLVLDAVESLGYLSDARVLALNSYENRVYQVGIEDGEPLIAKFYRPDRWSDAAIREEHAFSAELAECEVPVVAPLSRDGESLFAFSGFRFALFPRRGGRAPEPGNLDQLYRLGQLLGRLHAVGATRPFEHREALAVDNFGHASLATLLEGNFIPRSLLPAYESVARDLLKRLDALFAEVPYQPIRLHGDCHPGNLLCRDDVYHMVDLDDCRMGPALQDLWMMLAGERHERLAQIAELVDGYNEFHDFDPRQLPLLEGLRSLRLMHYSAWLARRWDDPAFPPSFPWFGSERYWGEQVLVLREQLAALDEEPLRLF
Regarding B2, the binding result was “binds”.

B3: IscR (protein, UniProt Q9HXI7 1-163)
chain: MRLTTKGRYAVTAMLDLALHAQQGPVSLADISERQGISLSYLEQLFAKLRRGNLVTSVRGPGGGYQLSRHMSGIHVAQVIDAVNESVDATRCQGQGDCHSGDTCLTHHLWCDLSLQIHEFLSGISLADLVSRQEVQEVALRQDERRCSGKTPRLDKIEASAID
For B3, the binding entry is reported as “binds”.

B4: Probable transcriptional regulator PA2897 (protein, UniProt Q9HZV0 1-479)
chain: MTNLLLYQRIAQQLAEDIRRGVYQPGERVPSVRKLSTQLNVSHATVLQAYATLEDQGLIRARPQSGFYVHRTPALTAPTPDIARVERPGLVTRSSIINQVLAESRREGVFPLGAAVPHVDYLPVRALHQQLAKVTRFQSPRAFSYMFSPGFEPLRRQVAIRMRDAGVVVDPSQVTITHGCVDAIHMALRVLTRPGDLIATESPSYYGLLQLADVLGLKVIEIPSDPRTGISLEALQLAANQWSIKALVLTARLSNPFGGTIPEDRQKQLLKLTAEHNIGVVEDDIYGELMFDQGQARSLKSHDRDGRVIYCSSFSKTISPGVRIGWIIAERYQEEIRRLQTFTTHSACTVTQMGVAAYLENGGYDRHLRYIRQEYRKNMTAYQLAVQQYFPEGTQMTRPKGGFILWVSLPAKVNTKELHVRALEQGISIAPGLIFSNTEQFNNCLRLTCGIPWNREAERAIMTLGMLAGQLCQEGLIAA
On to B4, for which the binding entry was “binds”.

B5: Uncharacterized protein PA3046 (protein, UniProt Q9HZG2 1-114)
chain: MATNRSRRLRKKLCVDEFQELGFELNFHYKEGVDADAVNAFMLRFIDQAIEANELTYGGCDEFGFVCLARRGSVNEEQRALIEAWLKQQPELASVEVGALVDAWYPEQPVLPKL
For B5, the binding entry is “binds”.

B6: Uncharacterized protein PA2503 (protein, UniProt Q9I0X9 1-417)
chain: MELSPAERQLLLAHRLAVFDGCVVYDAQPPVSAEHVQRLAEGLAGPIPEDLLRLWRTCFGGRLGYDLEVDYDGHRHPFSFSELFYPDSDGYHDLWGWIEHERELAAEAAAEEGRDWNGKLAYLPFGGFEYLERLYVCVEPGPEHGAVIAWSHGLPPAWAGRLHQDSVTRLADDVGGLFRLLSFEQDPFDAENACGVADELLEALDALEAAGEPGKALKGRLEVLLRQRILDWRPALADGSLAAEPRLRQLALAEAAQDGDIDLLQRLRDAGCDFAETLRGRGGVLEACLARGRLEAARWLLDQGVAVHQDSLQIGAAHLDAVLAERLLRLGAISDPNTVLLALQYGDADAARIMARPLLEESPARANALRLALASRAERERSDARRVRSGKMGSNRSPDDYLALAERLERFLAELPG
Regarding B6, the binding result is listed as “binds”.

B7: 50S ribosomal protein L22 (protein, UniProt Q9HWE0 1-110)
chain: MEVAAKLSGARISAQKARLVADQIRGKKVGEALNLLAFSSKKAAEIMKKVLESAVANAEHNEGADVDDLKVSTVFVNEGRSLKRIMPRAKGRADRIVKRSCHITVKVADK
In the case of B7, the binding result was “binds”.

B8: Cell division topological specificity factor (protein, UniProt Q9HYZ5 1-84)
chain: MSLLDFFRSRKSQNSASIAKERLQIIVAHERGQRAQPDYLPQLQKDLLEVIRKYVPIDQEQIQVELENQGNCSILELNITLPDR
Take B8: the binding result was “binds”.

B9: GTP cyclohydrolase-2 (protein, UniProt Q9HWY1 1-205)
chain: MSVVFVAASKLPTPFGEFTMHGFLDEESGKEHVALSMGDIADGAPVLGRLHSECLTGDALFSLRCDCGFQLEGALAAIAEEGRGVLLYLRQEGRGIGLLNKIRAYELQDGGADTVEANLQLGFGADQRDYAMCQPMLAHLGVSSLRLMTNNPRKVKALESYAITVAERVPLQKGLNKHNRRYLATKAGKLGHMLGSLHQGEAETT
In the case of B9, the binding result is “binds”.

B10: PslC (protein, UniProt Q9I1N6 1-303)
chain: MRCALVIPTRNAGAHLDRLLPALAAQRRQPDSILVVDSRSSDDTVERFRAFGARVEVIEPASFNHGGTRRWASQQVEADALIYLTQDAIPASPDSFANLLDELYAEADIGVAYGRQLPHPGAGLLGAQARRFNYPPESRSKRLADASELGIKTCFSSDSFSAYRSDALAAVGDFPEDVIGSEDAYVAARLLQAGYAVRYAASAEVYHSHDYRLLEEFRRYFDIGVFYGRERWIRAAFGGAGGEGKRYVLAEIQALRAAGALYRVPEIALRSAFKLLGYRLGQLERHLPVALKRRISMFPGYWK
For the molecule B10, the binding entry was “binds”.

B11: 3-demethoxyubiquinol 3-hydroxylase (protein, UniProt Q9I5R6 1-215)
chain: MSADRHYSPIDRFLLQADSALRTLLPFSGQPARPSPAIVEPDGELSEEDTRHIAGLMRINHTGEVCAQALYQGQSLTAKLPEVREAMEEAAEEEIDHLAWCEQRIRQLGSRPSVLNPIFYGLSFGVGAAAGLVSDRVSLGFVAATEDQVCKHLDEHLAQIPQEDRKSRAILEQMRIDEEQHSSNALAAGGLRFPAPVKLGMSLLAKVMTKSTYRI
For B11, the binding entry was “binds”.

B12: Transcription antitermination protein NusB (protein, UniProt Q9HWX6 1-159)
chain: MSNQDSGNPAAKPPKGKTAARRKARSLAVQALYSWQIAGQPLHEIEAQFRTDNDFSEVDGAYFHEILHGVPRQKSELDSTFEPCLDRPLAEIDPVELAILRLSTYELRNRIDVPYKVVINEGIELAKTFGATDGHKFVNGVLDKLAPRLRAAELRGGKR
In the case of B12, the binding entry is “binds”.

B13: Flavohemoprotein1 (protein, UniProt Q9I0H4 1-393)
chain: MLSNAQRALIKATVPLLETGGEALITHFYRTMLGEYPEVRPLFNQAHQASGDQPRALANGVLMYARHIDQLQELGPLVAKVVNKHVSLQVLPEHYPIVGTCLLRAIREVLGEQIATDEVLEAWGAAYQQLADLLIEAEESVYAASAQADGGWRGVRRFRVARKQAESEEITSFYLEPVDGQPLLAFQPGQYIGLRLDIDGEEVRRNYSLSAASNGREYRISVKREAGGRVSNYLHDRVAEGDELDLFPPAGDFVLRDSDKPLVLITAGVGITPALAMLQEALPQARPIRFIHCARHGGVHAFRDWIEDVSAQHEQVEHFFCYSEPRAGDSADAEGLLSREKLADWLPQERDLDAYFLGPRPFMAQVKRHLADLGVPSQQCHYEFFGPAAALDA
B13: the binding result was “binds”.

B14: Phosphoribosylformylglycinamidine cyclo-ligase (protein, UniProt Q9I513 1-353)
chain: MSSKQPSLSYKDAGVDIDAGEALVERIKGVAKRTARPEVMGGLGGFGALCEIPAGYKQPVLVSGTDGVGTKLRLALNLNKHDSIGQDLVAMCVNDLVVCGAEPLFFLDYYATGKLNVDVAATVVTGIGAGCELAGCSLVGGETAEMPGMYEGEDYDLAGFCVGVVEKAEIIDGSRVQAGDALIALPSSGPHSNGYSLIRKIIEVSGADIAQVQLDGKPLADLLMAPTRIYVKPLLQLIKQTGAVKAMAHITGGGLLDNIPRVLPDNAQAVIDVASWNRPAVFDWLQEQGNVDETEMHRVLNCGVGMVICVAQSDAEKALEVLRAAGEQPWQIGRIETCGADAERVVLNNLKNH
On to B14, for which the binding entry is recorded as “binds”.

B15: GTP cyclohydrolase 1 type 2 homolog (protein, UniProt Q9HVX2 1-252)
chain: MAIALSTLVEEADRYLDAARIQDYCPNGLQVEGRPQVRRIVSGVTASQALLDAAVEADADVVLVHHGYFWKGENPCVVGMKQRRLKTLLNNDISLLAYHLPLDLHPEVGNNVQLARQLGFEVEGPLEPGNPRSIVLLGSLAEPMQPADFARHVRDALGREPLLVDAGQPIRRIAWCTGGAQGYIDQAIAAGVDAYLTGEVSEQTVHSARENGISFIAAGHHATERYGVQALGDYLGKRFAIEHLFIDCPNPA
As to B15, the binding entry is “binds”.

B16: Protein PilG (protein, UniProt P46384 1-135)
chain: MEQQSDGLKVMVIDDSKTIRRTAETLLKKVGCDVITAIDGFDALAKIADTHPNIIFVDIMMPRLDGYQTCALIKNNSAFKSTPVIMLSSKDGLFDKAKGRIVGSDQYLTKPFSKEELLGAIKAHVPSFTPVDAVS
Turning to B16, the binding entry is “binds”.

B17: TPR repeat-containing protein PA4667 (protein, UniProt P42810 1-590)
chain: MMAPPSQVQGRLSSSMNKSLALLTVTLLLGGCQSLIHKTPDGTPPVEDTAVETKAKPEKYGSFSEDSLYSLLVAELAGQRNRFDIALSNYVVQAQKTRDPGVSERAFRIAEYLGADQEALDTSLLWARSAPDNLDAQRAAAIQLARAGRYEESMVYMEKVLNGQGDTHFDFLALSAAETDPDTRAGLLQSFDHLLKKYPNNGQLLFGKALLLQQDGRPDEALTLLEDNSASRHEVAPLLLRSRLLQSMKRSDEALPLLKAGIKEHPDDKRVRLAYARLLVEQNRLDDAKAEFAGLVQQFPDDDDLRFSLALVCLEAQAWDEARIYLEELVERDSHVDAAHFNLGRLAEEQKDTARALDEYAQVGPGNDFLPAQLRQTDVLLKAGRVDEAAQRLDKARSEQPDYAIQLYLIEAEALSNNDQQEKAWQAIQEGLKQYPEDLNLLYTRSMLAEKRNDLAQMEKDLRFVIAREPDNAMALNALGYTLADRTTRYGEARELILKAHKLNPDDPAILDSMGWINYRQGKLADAERYLRQALQRYPDHEVAAHLGEVLWAQGRQGDARAIWREYLDKQPDSDVLRRTIKRLTGAETP
With B17, the binding result is recorded as “binds”.

B18: 50S ribosomal protein L18 (protein, UniProt Q9HWF1 1-116)
chain: MSVKKETRLRRARKARLKMRELETVRLCVYRSSQHIYAQVIAADGGKVLASASTLDKDLREGATGNIDAAKKVGQLVAERAKAAGVTQVAFDRSGFKYHGRVKALADAAREGGLEF
On to B18, for which the binding entry is recorded as “binds”.
